Test results from patent EP3815699A1, “NEW MEANS AND METHODS FOR THERAPY AND DIAGNOSIS OF […]” (Technische Universität München, priority 2019, dated 2021).
These are yes or no findings as the source states them, for the method shown. For some assays here: In cells and extracts the contact can be indirect. Some results given as binding are weak or reduced against the parent protein; the word gives no strength.

Amino acid sequences for entries named in this document (tags omitted).
UniProt P29590: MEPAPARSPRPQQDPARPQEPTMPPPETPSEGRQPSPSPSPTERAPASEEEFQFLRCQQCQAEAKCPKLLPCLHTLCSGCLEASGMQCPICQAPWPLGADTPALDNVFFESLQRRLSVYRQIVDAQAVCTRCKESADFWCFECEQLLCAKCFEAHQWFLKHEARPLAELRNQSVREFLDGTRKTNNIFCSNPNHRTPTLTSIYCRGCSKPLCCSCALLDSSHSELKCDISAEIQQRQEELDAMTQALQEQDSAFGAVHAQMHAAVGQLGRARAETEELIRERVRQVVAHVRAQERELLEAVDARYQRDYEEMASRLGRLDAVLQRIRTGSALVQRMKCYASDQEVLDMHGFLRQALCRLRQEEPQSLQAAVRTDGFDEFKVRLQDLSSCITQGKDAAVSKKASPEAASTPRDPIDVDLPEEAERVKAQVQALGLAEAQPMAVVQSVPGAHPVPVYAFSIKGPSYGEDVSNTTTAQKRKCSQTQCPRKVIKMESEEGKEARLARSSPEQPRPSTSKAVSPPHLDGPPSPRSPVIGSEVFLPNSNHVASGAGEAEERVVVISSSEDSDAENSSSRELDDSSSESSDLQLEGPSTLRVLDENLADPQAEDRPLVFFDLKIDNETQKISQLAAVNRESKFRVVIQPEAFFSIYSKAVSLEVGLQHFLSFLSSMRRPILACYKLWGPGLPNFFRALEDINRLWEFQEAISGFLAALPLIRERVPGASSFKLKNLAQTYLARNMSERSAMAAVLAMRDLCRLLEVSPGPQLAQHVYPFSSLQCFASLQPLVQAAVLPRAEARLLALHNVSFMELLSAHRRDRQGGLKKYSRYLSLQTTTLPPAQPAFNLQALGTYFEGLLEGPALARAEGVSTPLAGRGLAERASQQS

Assays:
[1] = molecular target: PML (endogenous, HepaRG cells) (UniProt P29590); assay: biochemical analysis (co-immunoprecipitation, Example 9)
[2] = molecular target: PML (endogenous, HepaRG cells) (UniProt P29590); assay: title of the legend of Figure 7, anti-PML immunoprecipitation
[3] = molecular target: PML (endogenous, HepaRG cells) (UniProt P29590); assay: anti-PML immunoprecipitation from transfected HepaRG cells, anti-E2A immunoblot
[4] = molecular target: PML (endogenous, HepaRG cells) (UniProt P29590); assay: anti-PML immunoprecipitation from HepaRG cells infected with HAdV wt, anti-E2A immunoblot
[5] = molecular target: PML (endogenous, HepaRG cells) (UniProt P29590); assay: anti-PML immunoprecipitation from HepaRG cells infected with the HAdV E4orf3 mutant, anti-E2A immunoblot

Measured: binding

E2A wt, untagged (pCMX3bE2A / pE2A-wt, or expressed from HAdV wt H5pg4100) (from UniProt P03265 1-529)
binds: all assays above
